No constants are given. Whether binding was seen depends on the method and setting. Some entries that bind do so weakly or less than the wild type.

This note sets out measurements from patent publication US20090028880A1.

The test addresses mouse serum albumin (mouse), P07724. Conditions: remark: other sources report otherwise.

B1: PMP6G7 (VHH)
VHH: QVQLVESGGGLVQPGGSLRLSCAASGFTFSNYWMYWVRVAPGKGLERISRDISTGGGYSYYADSVKGRFTISRDNAKNTLYLQMNSLKPEDTALYYCAKDREAQVDTLDFDYRGQGTQVTVSS
As to B1, the binding entry is “binds”.
